According to PubChem BioAssay AID2517 (National Center for Advancing Translational Sciences (NCATS), 2010):
“And” between values parts separate entries of the source, which are not always exact repeats. Equal entries are not always repeated. Hit rate of the full screen: of about 350,000 compounds, about 1,200 (0.34%) were called active. The inconclusive results got no clear call from the source; some entries with a clear call stand among them for comparison. Calls come from the whole dose curve; as a rule, active = well fitted inhibition curve with a large enough effect; inconclusive = small, poorly fitted or top-dose-only effect; inactive = no such curve, though single readings can be large or run the other way. Potencies beside an inconclusive call are fits to weak or partial responses and may not hold up.
Note: nearly all actives have a fitted effect of over 55% in size.
Potency is the fitted concentration of half-maximal effect.
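Throughout, for activity change, negative = inhibition: plate controls were vehicle for no effect and reference inhibitor for full effect.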

Chains of the proteins cited; added tags and fusions are not shown.
UniProt P27695, whole entry, looked up: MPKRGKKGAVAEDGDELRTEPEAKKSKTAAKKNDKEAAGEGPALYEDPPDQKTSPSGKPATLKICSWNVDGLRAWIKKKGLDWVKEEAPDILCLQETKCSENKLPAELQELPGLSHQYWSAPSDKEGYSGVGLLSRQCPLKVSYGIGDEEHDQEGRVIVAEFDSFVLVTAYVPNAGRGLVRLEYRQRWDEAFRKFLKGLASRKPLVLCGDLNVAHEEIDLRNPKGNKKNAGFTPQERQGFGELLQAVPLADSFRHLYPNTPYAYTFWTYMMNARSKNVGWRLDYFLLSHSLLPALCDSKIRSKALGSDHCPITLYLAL

These molecules were tested against DNA repair nuclease/redox regulator APEX1 (Homo sapiens) (UniProt P27695) (assay: qHTS Assay for Inhibitors of the Human Apurinic/apyrimidinic Endonuclease 1 (APE1)). Settings: recombinant APE1, TAMRA/BHQ-2 abasic DNA cleavage fluorescence; activity change, negative = inhibition: at 65.8 µM (top of the series).
Summary of the method: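 APE1 at 0.75 nM final was preincubated with compound 15 min at room temperature, then 50 nM double-stranded THF abasic-site substrate (5'-TAMRA/3'-BHQ-2) was added. Fluorescence (ex 525/em 598 nm) was read kinetically; third-minus-first read gave activity.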
With `O=C(CSc1nnc(NC(=O)c2ccccc2)s1)NCc1ccco1` the “activity change, negative = inhibition” value was inactive: 3.78%. For `COc1ccc(CNC(=O)[C@H](C)[C@H]2C[C@]2(C)[C@H](NC(=O)OCc2ccccc2)c2ccccc2)cc1OC`, the Potency was inconclusive: 3.98 µM [inhibitor, partial curve, poor fit]. `Cc1cc(C)c(S(=O)(=O)n2ccc3ccccc32)c(C)c1` was tested, and the Potency was inconclusive: 1.78 µM [inhibitor, partial curve]. With `COc1cc(O)c(/C=N/NC(=O)c2ccncc2)c(OC)c1[N+](=O)[O-]` the “activity change, negative = inhibition” value was inactive: -7.1%. For `COc1cc2c(-c3ccc4cc[nH]c4c3)c(-c3ccc(C#N)cc3)oc(=O)c2cc1OC`, the “activity change, negative = inhibition” value was inactive: 10.1%. In the case of `O=C(N/N=C\c1ccc[nH]1)C1COc2ccccc2O1` (configuration not stated), the “activity change, negative = inhibition” value was inactive: 1.44%. With `O=C(Nc1nc(-c2ccco2)c(-c2ccco2)s1)C1CCC1` the Potency was inconclusive: 28.2 µM [inhibitor, single point]. With `COc1ccc(OC)c(NC(=O)Nc2nnc(N3CCC(C)CC3)s2)c1` the Potency was inconclusive: 3.98 µM [inhibitor, single point]. In the case of `CC(=O)Nn1cnc2c(c1=O)C1(CCCC1)Cc1ccccc1-2`, the Potency was inconclusive: 7.08 µM [inhibitor, single point]. In the case of `O=C(O)c1ccc(Nc2nc(-c3ccc([N+](=O)[O-])cc3)nc3ccccc23)cc1`, the Potency was inconclusive: 37.7 µM [inhibitor, single point]. With `CCN(CC)C(=O)CC(c1ccc(OC)cc1)c1c(OC)cc(OC)c2ccc(=O)oc12` (configuration not stated) the Potency was inconclusive: 35.5 µM [inhibitor, single point] and inconclusive: 20 µM [inhibitor, single point]. `O=C(CSc1n[nH]c(-c2cccs2)n1)N1CCCC1` was tested, and the “activity change, negative = inhibition” value was inactive: 9.24%. For `COc1ccc(-c2[nH]n(-c3ccc([N+](=O)[O-])cc3)c(=O)c2C=NCc2ccncc2)cc1`, the “activity change, negative = inhibition” value was inactive: 4.61%. In the case of `CCS(=O)(=O)c1ccc2oc(Nc3ccc(OC)cc3)nc2c1`, the Potency was inconclusive: 35.5 µM [inhibitor, single point]. `CCOc1ccc(NC(=O)c2cc3ccccc3cc2O)cc1` was tested, and the Potency was inconclusive: 28.2 µM [inhibitor, partial curve, poor fit]. In the case of `CCOC(=O)c1nnn(-c2nonc2N)c1CN1CCCCCC1`, the Potency was inconclusive: 44.7 µM [inhibitor, single point]. For `COc1ccc(Cl)cc1Nc1nc(-c2sc(NC(=O)CC(C)C)nc2C)cs1`, the Potency was inconclusive: 31.6 µM [inhibitor, single point]. In the case of `COc1cccc(-c2ccc3ncnc(NCc4cccc(F)c4)c3c2)c1`, the “activity change, negative = inhibition” value was inactive: 12.8%. `O=C(N/C=N/OCc1cccc(C(F)(F)F)c1)N1OC[C@@H]2COc3ccc4ccccc4c3[C@@H]21` was tested, and the Potency was inconclusive: 0.282 µM [inhibitor, full curve, poor fit]. With `CCOC(=O)c1c(C)oc2c1c(C(c1ccncc1)N1CCOCC1)c(O)c1ccccc12` (configuration not stated) the Potency was inconclusive: 39.8 µM [inhibitor, single point]. `Cc1cc(C)c(S(=O)(=O)NCC23C=CC(O2)C2C(=O)N(c4ccccc4)C(=O)C23)c(C)c1` (configuration not stated) was tested, and the “activity change, negative = inhibition” value was inactive: 21.2%. `COc1ccc(C2CC(=O)Oc3cc(O)cc(O)c32)cc1` (configuration not stated) was tested, and the “activity change, negative = inhibition” value was inactive: -6.84%. With `O=S(=O)(O)c1cccc2c(N=Nc3ccc(O)c4ncccc34)cccc12` the Potency was active: 23.8 µM. With `N#CC1=C(N)N2C(=C(C#N)C13CCCCC3)SC1CCCCC12O` (configuration not stated) the Potency was inconclusive: 44.7 µM [inhibitor, single point]. In the case of `CC(C)c1cc(NC(=O)c2ccccc2)cc(C(C)C)c1O`, the Potency was inconclusive: 0.708 µM [inhibitor, full curve, poor fit]. In the case of `COC(=O)[C@@]1(Cc2ccc(OC)cc2)[C@H]2c3cc(C(=O)N(C)C)n(Cc4ccsc4Br)c3C[C@H]2CN1C(=O)c1ccccc1`, the “activity change, negative = inhibition” value was inactive: -9.05%. In the case of `CCCCN=C1NN=C(c2ccc3c(c2)OCCO3)CS1`, the “activity change, negative = inhibition” value was inactive: -10.1%. In the case of `CCC(O)c1ccccc1` (configuration not stated), the Potency was inconclusive: 8.91 µM [inhibitor, single point]. For `COc1ccc(-c2cc(C)nc3c(-c4ccccc4)cnn23)cc1`, the Potency was inconclusive: 31.6 µM [inhibitor, single point]. `O=C(O)Cc1ccc(O)c(O)c1` was tested, and the Potency was inconclusive: 28.2 µM [inhibitor, partial curve] and inconclusive: 35.5 µM [inhibitor, partial curve] and inconclusive: 39.8 µM [inhibitor, single point]. `CNCCCCOc1ccccc1Cc1ccccc1` was tested, and the Potency was inconclusive: 44.7 µM [inhibitor, single point]. `S=C([S-])NCCNC(=S)[S-].[Zn+2]` was tested, and the Potency was active: 15.8 µM. With `NNC(=O)/C(=C\c1ccco1)NC(=O)c1ccco1` the “activity change, negative = inhibition” value was inactive: 27.3%. `CCOc1ccccc1C(=O)OCC(=O)NCCNC(=O)COC(=O)c1ccccc1OCC` was tested, and the Potency was inconclusive: 37.7 µM [inhibitor, single point]. In the case of `C#CCCCO/N=C1/C[C@@H](O)[C@@H](O)[C@@H]2[C@@H]3C(=O)N(C4CCCCC4)C(=O)[C@H]3CC[C@@H]12`, the Potency was inconclusive: 7.94 µM [inhibitor, single point]. With `COc1ccc(NS(=O)(=O)c2ccc(NC(=S)NC(=O)C(C)C)cc2)cc1` the Potency was inconclusive: 44.7 µM [inhibitor, single point]. In the case of `Cc1cccc(-c2onc3ccc(C4(C)OCCO4)cc23)c1`, the Potency was inconclusive: 31.6 µM [inhibitor, single point]. For `Cc1cccc2c(N)c3c(nc12)CCCC3` (tested in a mixture with another compound), the Potency was inconclusive: 0.126 µM [inhibitor, full curve, poor fit]. `CCOc1ccccc1Nc1nnc(Cc2ccccc2Cl)c(=O)[nH]1` was tested, and the “activity change, negative = inhibition” value was inactive: -2.8%. In the case of `O=C1C=C(O)CC(c2ccco2)C1` (configuration not stated), the Potency was active: 3.16 µM. With `S=c1[nH]nc(-c2ccncc2)n1/N=C/C=C/c1ccco1` the Potency was inconclusive: 35.5 µM [inhibitor, single point]. In the case of `CO[C@@H]1COC(=O)[C@H](CCSC)NC(=O)C/C=C\[C@@H](C)COC(=O)[C@@H]2CCCN2C(=O)C/C=C\[C@H]1C`, the Potency was inconclusive: 7.94 µM [inhibitor, single point]. In the case of `O=c1sc(Nc2ccccc2)nc2ccccc12`, the Potency was inconclusive: 3.16 µM [inhibitor, single point]. In the case of `COc1ccc(CC(=O)Nc2ccc3nc(SC)sc3c2)cc1OC`, the Potency was inconclusive: 1.41 µM [inhibitor, full curve, poor fit]. With `CCN(CC)S(=O)(=O)c1cccc(-c2n[nH]c(=S)n2CC(C)C)c1` the Potency was inconclusive: 31.6 µM [inhibitor, single point]. With `O=C1COC(c2ccccc2)C2CCCCN12` (configuration not stated) the “activity change, negative = inhibition” value was inactive: -2.26%. For `Cc1ccc(S(=O)(=O)N2CCCCC2)cc1C(=O)Nc1ncn[nH]1`, the Potency was inconclusive: 22.4 µM [inhibitor, single point]. `Cc1nn(Cc2ccc(Cl)c(Cl)c2)c(C)c1NC(=O)c1cc(-c2ccco2)on1` was tested, and the “activity change, negative = inhibition” value was inactive: -1.11%. `O=C(O)CCC(=O)c1c[nH]c2ccccc12` was tested, and the Potency was inconclusive: 28.2 µM [inhibitor, single point]. `CCCOc1ccc(Cc2nn3c(=O)/c(=C/c4ccco4)sc3nc2=O)cc1` was tested, and the Potency was inconclusive: 31.6 µM [inhibitor, partial curve]. For `O=C(CCSc1nnc2ccccn12)Nc1ccc2c(c1)OCO2`, the Potency was inconclusive: 28.2 µM [inhibitor, single point]. `CCN(CC)S(=O)(=O)c1ccc(NS(=O)(=O)c2ccc(F)cc2)cc1` was tested, and the “activity change, negative = inhibition” value was inactive: 0.563%. With `O=C(Nc1ccccc1N1CCOCC1)c1cc(-c2ccco2)nc2ccccc12` the Potency was inconclusive: 35.5 µM [inhibitor, single point]. With `Cc1ccc(S(=O)(=O)N/N=C\c2ccc3c(c2)OCO3)cc1` the Potency was inconclusive: 3.16 µM [inhibitor, full curve]. With `N#Cc1c(SCc2c(Cl)cccc2Cl)nc(N)[nH]c1=S` the “activity change, negative = inhibition” value was inactive: -5.74%. In the case of `Cc1nc2ccccc2c(=O)n1/N=C/c1c(O)ccc2ccccc12`, the “activity change, negative = inhibition” value was inactive: 3.12%. With `O=C(O)COc1cccc(NC(=O)c2ccccc2)c1` the “activity change, negative = inhibition” value was inactive: 0.872%. For `COc1ccc2c(c1OC)C(=O)N(c1cccc(NC(C)=O)c1)C2`, the Potency was inconclusive: 29.9 µM [inhibitor, single point]. `CCCn1c(N)c(N(CCOC)C(=O)/C=C/c2ccc(C(=O)OC)cc2)c(=O)[nH]c1=O` was tested, and the Potency was inconclusive: 10 µM [inhibitor, full curve, poor fit]. For `CC(C)C(=O)N1CCN(c2ccc(NC(=O)COc3ccccc3[N+](=O)[O-])cc2)CC1`, the Potency was inconclusive: 3.98 µM [inhibitor, single point]. `O=C(Oc1coc(CSc2nnc(NC(=O)C3CC3)s2)cc1=O)c1c(F)cccc1F` was tested, and the Potency was inconclusive: 22.4 µM [inhibitor, single point]. In the case of `CC(=O)c1ccc(NC(=O)Nc2ccc3c(c2)N(C)C(=O)CS3)cc1`, the Potency was inconclusive: 39.8 µM [inhibitor, single point]. `CCOC(=O)N=Nc1c2ccccc2c2nc3no[nH]c3nc12` was tested, and the Potency was inconclusive: 7.94 µM [inhibitor, full curve, poor fit]. For `Cc1cc(NC(=O)CSc2ncnc3c2cnn3-c2ccccc2)no1`, the Potency was inconclusive: 0.0398 µM [inhibitor, full curve, poor fit]. For `O=C(COC(=O)c1ccc(F)cc1Cl)Nc1cccc(S(=O)(=O)N2CCOCC2)c1`, the “activity change, negative = inhibition” value was inactive: -11.1%. For `CC1(C)Cc2c(C#N)c(OCC(=O)c3ccccc3)nc(-c3ccoc3)c2CO1`, the “activity change, negative = inhibition” value was inactive: 11.3%. In the case of `O=C(N/N=C/c1ccc(OC(=O)c2ccccc2)cc1)c1cccnc1`, the Potency was inconclusive: 21.2 µM [inhibitor, single point].
